The whole screen tested about 2,000 compounds, of which about 45 (2%) were called active.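 The calls were made as follows: active = inhibition above the screen-wide mean inhibition plus 3 SD (cut at about 44% in these data); inactive = the rest.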 The list shows a part of the results.
Target: Perilipin-1 (Homo sapiens) + 1-acylglycerol-3-phosphate O-acyltransferase ABHD5 (Homo sapiens) (UniProt O60240+Q8WTS1)
Assay: blockers of ABHD5 binding to perilipin-1 – cell lysate, split luciferase complementation, luminescence, NIH validation set, pilot screen (AID 493027);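 also: 0% = DMSO wells with the 100% control not disclosed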
Conditions: split G. princeps luciferase complementation, 4 h; at 7.9 µM, active compounds read high

Chains of the proteins cited; added tags and fusions are not shown. Lines headed by an entry give the natural chain unless they say otherwise; changes in a name come on top.
UniProt O60240: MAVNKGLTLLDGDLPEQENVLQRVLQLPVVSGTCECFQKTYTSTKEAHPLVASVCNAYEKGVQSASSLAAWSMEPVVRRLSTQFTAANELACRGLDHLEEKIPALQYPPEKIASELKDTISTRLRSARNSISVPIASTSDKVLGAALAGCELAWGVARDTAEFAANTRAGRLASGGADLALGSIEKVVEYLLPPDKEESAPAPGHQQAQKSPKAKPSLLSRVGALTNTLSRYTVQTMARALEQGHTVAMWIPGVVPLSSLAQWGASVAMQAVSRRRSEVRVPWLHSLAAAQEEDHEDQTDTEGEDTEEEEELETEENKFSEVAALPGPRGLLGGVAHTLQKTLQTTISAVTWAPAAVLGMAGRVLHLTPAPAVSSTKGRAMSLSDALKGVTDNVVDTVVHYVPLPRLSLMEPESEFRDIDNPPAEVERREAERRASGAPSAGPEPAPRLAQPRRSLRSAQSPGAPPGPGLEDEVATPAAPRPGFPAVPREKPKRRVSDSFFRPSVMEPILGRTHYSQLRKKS
UniProt Q8WTS1: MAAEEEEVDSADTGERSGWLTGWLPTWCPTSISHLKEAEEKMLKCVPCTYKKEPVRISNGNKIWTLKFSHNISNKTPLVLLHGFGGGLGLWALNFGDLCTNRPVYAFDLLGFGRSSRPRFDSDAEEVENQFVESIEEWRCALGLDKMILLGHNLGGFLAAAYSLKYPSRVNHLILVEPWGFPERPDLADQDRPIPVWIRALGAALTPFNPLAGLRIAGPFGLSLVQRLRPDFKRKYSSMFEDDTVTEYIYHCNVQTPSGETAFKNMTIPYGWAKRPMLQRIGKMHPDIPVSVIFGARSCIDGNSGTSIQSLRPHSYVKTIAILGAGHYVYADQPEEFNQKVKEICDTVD

inhibition, active:
CCN1/C(=C/C=C/C=C/c2sc3ccccc3[n+]2CC)Sc2ccccc21 52.7%
O=C(/C=C/c1ccccc1)/C=C/c1ccccc1 88.9%

inhibition, inactive:
O=C(CN1C(=O)c2ccccc2C1=O)Nc1cccc([N+](=O)[O-])c1 -6.73%
O=c1[nH]cnc2c1ncn2[C@@H]1O[C@H](CO)[C@@H](O)[C@H]1O -1.58%
CCc1nc2ccccc2n1Cc1ccc(OC)c(OC)c1 0.12%
C[C@@H]1C[C@H]2[C@@H]3C[C@H](F)C4=CC(=O)C=C[C@]4(C)[C@@]3(F)[C@@H](O)C[C@]2(C)[C@@]1(O)C(=O)COC(=O)C(C)(C)C 6.23%
COc1ccc(CCN=CC2=C(O)CC(C)(C)CC2=O)cc1 -4.85%
C=CCNC(=O)c1ccc(-c2cccc([N+](=O)[O-])c2)o1 -9.66%
CC(C)CCC1(CCNC(C)c2cccs2)CCOC(C)(C)C1 (stereo unspecified) -4.9%
COc1ccc(CC(=O)c2c(O)cc(O)cc2O)cc1OC 7.05%
COc1ccc(NC(=O)CC2C(=O)N(C)C(=S)N2Cc2ccncc2)cc1 (stereo unspecified) -1.63%
Nc1ccn([C@@H]2O[C@H](CO)[C@@H](O)[C@@H]2O)c(=O)n1 -6.44%
NC(N)=N/N=C/c1cccc(Cl)c1Cl -10%
COc1cc2c(cc1OC)-c1cc(NC3CCCCCC3)nc(=O)n1CC2 12.8%
CCOc1cc2c(cc1OCC)C(c1ccccc1)N(c1ccc(C(=O)O)cc1)C(=O)C2 (stereo unspecified) 4.36%
O=C(CCN1CCC(c2ccccc2)C1)c1ccc2c(c1)OCCO2 (stereo unspecified) 30.4%
c1ccc(Cn2nnc3cnccc32)cc1 -3.96%
CCOc1ccc(C(=O)/C=C/c2cc(OC)c(OC)c(OC)c2)cc1 22.5%
CC(=O)Nc1nc(CCC(C)C)cc2c1c(=O)oc1ccccc12 -9.01%
CC(COc1ccccc1)NC(C)C(O)c1ccc(O)cc1 (stereo unspecified) -4.08%
CC(C)(C)c1ccc(C(O)CCCN2CCC(C(O)(c3ccccc3)c3ccccc3)CC2)cc1 (stereo unspecified) -10.9%
CCc1ccc(CN(C)Cc2nc(Cc3ccccc3)no2)nc1 1.2%
O=C(O)CCCCCN1C(=O)C(=O)/C(=C(/O)c2ccccc2)C1c1ccccc1 (stereo unspecified) -14.4%
Cn1c2c(c(=O)[nH]c1=O)C(c1ccc(O)cc1)C1=C(N2)c2ccccc2C1=O (stereo unspecified) 8.86%
O=c1c2ccccc2nc2n1-c1ccccc1CCC2 -5.25%
CN(C)CCOCCOc1ccc(Cl)cc1Br -2.32%
O=C(Oc1cccccc1=O)c1ccccc1 -14.4%
Cc1nonc1CN(C)C(=O)c1ccc(OC2CCN(Cc3ccccn3)CC2)cc1 -6.55%
COc1ccc(-c2onc(C)c2-c2ccc(C(=O)OC(C)C)o2)c(O)c1 1.7%
C=CCNC(=S)N1CCc2c([nH]c3ccccc23)C1C (stereo unspecified) -7%
OC[C@H]1O[C@@H](n2cnc3c(Nc4ccccc4)ncnc32)[C@H](O)[C@@H]1O -8.54%
Cc1cc(-c2nn(-c3ccccc3F)cc2CN2CCCC(O)C2)c(C)s1 (stereo unspecified) -4.69%
Cc1cc(-c2ccccc2)nnc1NCCN1CCOCC1 -9.05%
OCCN(Cc1nc(-c2ccc3c(c2)OCO3)no1)Cc1cccs1 3.67%
CCOc1ccccc1C(=O)NCCC(=O)O -2.91%
COc1cc2c(cc1OC)CN(C(=O)c1ccc(S(=O)(=O)N(C)c3ccccc3)cc1)CC2 14.8%
CSc1ccc2c(c1)N(CCC1CCCCN1C)c1ccccc1S2 (stereo unspecified) 12.7%
c1ccc(Cn2ncc3c(Nc4ccccc4)ncnc32)cc1 0.25%
CCCC(CCC)C(=O)OC1C[C@H]2CC[C@@H](C1)[N+]2(C)C (stereo partly specified) -8.54%
O=C(OCCN1CCOCC1)c1cccs1 -1.51%
O=c1nc2sc3ccccc3n2c(=O)n1-c1ccc(Cl)cc1 2.92%
COc1ccc(CCn2c(C)nc3c(c(=O)c4ccccc4n3C)c2=O)cc1 15.1%
Cc1ccc(S(=O)(=O)NC(=O)NN2CCCCCC2)cc1 -16.1%
COc1ccccc1NC(=O)C12CCC(C)(C(=O)C1)C2(C)C (stereo unspecified) -0.67%
C[C@]12CC[C@@H]3c4ccc(OS(=O)(=O)O)cc4CC[C@H]3[C@@H]1CCC2=O 1.29%
COC1(C)CC2C(CC1OC(=O)c1cc([N+](=O)[O-])cc([N+](=O)[O-])c1)C2(C)C (stereo unspecified) -17.4%
CCN(CC)CCOC(=O)C(c1ccccc1)c1ccccc1 -2.52%
OC(CCCN1CCCCC1)(c1ccccc1)c1ccccc1 1.09%
Cn1nc(-c2ccccn2)nc2c(=O)n(C)c(=O)nc1-2 -29.3%
CCN(CC)CCNc1ccc(CO)c2sc3ccccc3c(=O)c12 2.54%
Cc1ccc(O)c(CCc2ccccc2)n1 -1.66%
CCCCC[C@H](O)/C=C/[C@@H]1[C@@H](C/C=C\CCCC(=O)OC)[C@@H](O)C[C@H]1O -10.7%
Fc1cc(F)cc(NC(=S)NCCCN2CCOCC2)c1 -1.84%
COc1ccc(C=O)c(OC)c1 0.71%
Cc1ccsc1/C=C/C1=NCCCN1C 1.11%
CC1(C)C2CCC1(C(=O)O)c1nc3ccccc3nc12 (stereo unspecified) -5.53%
CC(OC(=O)c1cc(=O)[nH]c2ccccc12)C(=O)c1ccccc1 (stereo unspecified) 4.11%
CCc1cc2c(=O)c(-c3nc(C)cs3)c(CCCC(=O)O)oc2cc1O -2.3%
Cc1cnc(C(=O)NCCc2ccc(S(=O)(=O)NC(=O)NC3CCCCC3)cc2)cn1 4.38%
Cc1ccccc1C(=O)Nc1ccccc1C(=O)NCC(C)C -6.24%
COc1ccc2[nH]c(=O)c(CN(C(=O)c3ccco3)C(C)C)cc2c1 0.59%

An excerpt from the list above, as a working copy:
inhibition, inactive:
CCOc1ccccc1C(=O)NCCC(=O)O -2.91%
COc1cc2c(cc1OC)CN(C(=O)c1ccc(S(=O)(=O)N(C)c3ccccc3)cc1)CC2 14.8%
CSc1ccc2c(c1)N(CCC1CCCCN1C)c1ccccc1S2 (stereo unspecified) 12.7%
c1ccc(Cn2ncc3c(Nc4ccccc4)ncnc32)cc1 0.25%
CCCC(CCC)C(=O)OC1C[C@H]2CC[C@@H](C1)[N+]2(C)C (stereo partly specified) -8.54%

Reference: PubChem BioAssay AID493027 (The Scripps Research Institute Molecular Screening Center, 2011)
